Consider 2 molecules from article PMC6447540.

By UniProt entry, the sequences of proteins in these tests, tags left out.
UniProt Q9GZV5: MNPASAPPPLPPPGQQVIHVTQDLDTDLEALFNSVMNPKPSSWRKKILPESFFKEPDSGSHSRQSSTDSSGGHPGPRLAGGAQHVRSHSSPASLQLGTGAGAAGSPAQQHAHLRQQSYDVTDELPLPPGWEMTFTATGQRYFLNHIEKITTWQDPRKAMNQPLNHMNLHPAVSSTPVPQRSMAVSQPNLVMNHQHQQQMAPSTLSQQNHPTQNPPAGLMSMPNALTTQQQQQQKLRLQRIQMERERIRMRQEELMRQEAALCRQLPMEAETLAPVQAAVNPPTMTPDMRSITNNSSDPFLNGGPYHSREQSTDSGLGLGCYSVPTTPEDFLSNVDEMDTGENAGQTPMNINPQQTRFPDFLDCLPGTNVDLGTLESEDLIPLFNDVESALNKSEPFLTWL
UniProt P31749: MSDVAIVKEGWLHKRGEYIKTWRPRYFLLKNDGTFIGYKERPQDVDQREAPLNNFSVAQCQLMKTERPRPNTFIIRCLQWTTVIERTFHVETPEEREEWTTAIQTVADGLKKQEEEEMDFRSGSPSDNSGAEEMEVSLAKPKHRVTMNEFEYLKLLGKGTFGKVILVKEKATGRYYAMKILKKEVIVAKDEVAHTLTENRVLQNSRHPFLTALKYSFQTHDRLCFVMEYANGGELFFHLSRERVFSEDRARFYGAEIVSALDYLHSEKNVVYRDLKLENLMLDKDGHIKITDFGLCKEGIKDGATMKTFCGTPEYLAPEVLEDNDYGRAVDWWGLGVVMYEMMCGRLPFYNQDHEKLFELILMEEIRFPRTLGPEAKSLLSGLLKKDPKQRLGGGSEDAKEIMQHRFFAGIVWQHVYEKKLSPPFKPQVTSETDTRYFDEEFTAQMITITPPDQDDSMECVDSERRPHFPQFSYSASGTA

No constants are given. Whether binding was seen depends on the method and setting. In cells and extracts the contact can be indirect. Some binding calls cover weakened binding; strength is not graded here.

The target of assay [1] is Flag-TAZ (UniProt Q9GZV5). Put plainly: co-IP; Flag-IP (anti-Flag agarose beads, 3-4 h at 4 °C) from 1000 μg lysate of HEK293 cells co-transfected with the indicated constructs; washed five times with NETN buffer; immunoblot (Fig. 1a, 1e). For orientation: In western blotting, separated proteins are transferred to a membrane and probed.
The target of assay [2] is T1, Biotin-Akt1-WT peptide.
T1 sequence (peptide, biotin on the N-terminus; free C-terminus): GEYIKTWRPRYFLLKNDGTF
Briefly: pull-down; biotin-labeled Akt1 peptides (2 μg) incubated with 1 mg whole cell lysate in 500 μl for 4 h at 4 °C, Streptavidin agarose beads 1 h, washed four times with NETN buffer; western blot (Fig. 1f); only the target purified.

Turning to HA-Akt1 (from UniProt P31749 1-480), in assay [1], the binding entry is reported as “no binding”.

B1: SAV1 (construct not stated) (protein, UniProt Q9H4B6 1-383)
chain: MLSRKKTKNEVSKPAEVQGKYVKKETSPLLRNLMPSFIRHGPTIPRRTDICLPDSSPNAFSTSGDVVSRNQSFLRTPIQRTPHEIMRRESNRLSAPSYLARSLADVPREYGSSQSFVTEVSFAVENGDSGSRYYYSDNFFDGQRKRPLGDRAHEDYRYYEYNHDLFQRMPQNQGRHASGIGRVAATSLGNLTNHGSEDLPLPPGWSVDWTMRGRKYYIDHNTNTTHWSHPLEREGLPPGWERVESSEFGTYYVDHTNKKAQYRHPCAPSVPRYDQPPPVTYQPQQTERNQSLLVPANPYHTAEIPDWLQVYARAPVKYDHILKWELFQLADLDTYQGMLKLLFMKELEQIVKMYEAYRQALLTELENRKQRQQWYAQQHGKNF
For B1, the binding entry in assay [2] was “binds”.
